The test has as its system L1210 leukemia ip in BDF1 mice, survival T/C. The test is described as follows: NCI In Vivo Anticancer Drug Screen. Data for tumor model L1210 Leukemia (intraperitoneal) in B6D2F1 (BDF1) mice. The following applies: T/C endpoint: mean survival time, higher T/C = longer survival.
Setting [1] is: dose: 100.0 mg/kg/injection, schedule: Q04DX003 (ip), vehicle: Klucel (hydroxypropylcellulose) (HPC).
Where [2] appears, read: dose: 200.0 mg/kg/injection, schedule: Q04DX003 (ip), vehicle: Klucel (hydroxypropylcellulose) (HPC).
Where [3] appears, read: dose: 400.0 mg/kg/injection, schedule: Q04DX003 (ip), vehicle: Klucel (hydroxypropylcellulose) (HPC).
Where [4] appears, read: dose: 400.0 mg/kg/injection, schedule: Q01DX009 (ip), vehicle: Klucel (hydroxypropylcellulose) (HPC).
Where [5] appears, read: dose: 100.0 mg/kg/injection, schedule: Q01DX001 (ip), vehicle: saline with Tween-80.
The mark [6] stands for this setting: dose: 400.0 mg/kg/injection, schedule: Q01DX001 (ip), vehicle: saline.
Where [7] appears, read: dose: 400.0 mg/kg/injection, schedule: Q01DX001 (ip), vehicle: carboxymethylcellulose (CMC).
[8] abbreviates: dose: 150.0 mg/kg/injection, schedule: Q01DX001 (ip), vehicle: saline.
[9] abbreviates: dose: 300.0 mg/kg/injection, schedule: Q01DX001 (ip), vehicle: saline.

SMILES strings stand for the structures. The list is a part of this screen's results and no random one: it is rich in T/C values a quarter to a half above the control, in often repeated tests (any T/C) and in doses without a T/C. Further doses and runs are listed elsewhere. T/C is the treated group as % of the vehicle group. Some doses have a count of surviving animals in place of a T/C: the source files T/C as zero there, which appears to mark a toxic dose or a test without result, not a measured value. Some doses without a T/C left all or most animals alive at the check, yet need not have been tolerated: the source hardly ever lists a survival T/C far under the control, and the zero likely stands for such cases as well. Counts of survivors are from the toxicity check (mostly the fifth day) where no day follows; animals may have died later. Schedule codes are those of the source, read here as Q, the interval in days (D) or hours (H), X, the number of doses. Signs of the kind (2×) say how often a value occurs here. Some entries hold several experiments; the values are given in rising order. Some schedule codes hold Z or #, which are not explained here. For survival time, the PubChem record calls one and a half times the control and up active, and a quarter to a half above the control has no call in these data; cut-offs in other NCI protocols can differ.

In the case of `Cc1cc(NC(=O)Nc2cc(F)ccc2F)no1`, under “dose: 100.0 mg/kg/injection, schedule: Q01DX009 (ip), vehicle: Klucel (hydroxypropylcellulose) (HPC)”, the T/C was 145 % of control.

As for `COc1cc(NCCCCCNC(C)C)c2ncccc2c1`, the survivor count is given as 0 of 3 (dose: 100.0 mg/kg/injection, schedule: Q04DX002 (ip), vehicle: saline with Tween-80); 0 of 3 (dose: 200.0 mg/kg/injection, schedule: Q04DX002 (ip), vehicle: saline with Tween-80); 0 of 3 (dose: 400.0 mg/kg/injection, schedule: Q04DX002 (ip), vehicle: saline with Tween-80).

Consider `C=CCN(CC#N)CC#N`, for which the survivor count by setting is: (dose: 20.0 mg/kg/injection, schedule: Q04DX003 (ip), vehicle: Klucel (hydroxypropylcellulose) (HPC)) 0 of 6; (dose: 40.0 mg/kg/injection, schedule: Q04DX003 (ip), vehicle: Klucel (hydroxypropylcellulose) (HPC)) 0 of 6; under setting [1], 0 of 6; under setting [2], 0 of 6; under setting [3], 0 of 6.

Consider `CCCCCCCCP(=O)(N1CC1C)N1CC1C` (configuration not stated), for which the survivor count (dose: 200.0 mg/kg/injection, schedule: Q04DX003 (ip), vehicle: saline) is listed as 3 of 6 and the survivor count (dose: 400.0 mg/kg/injection, schedule: Q04DX003 (ip), vehicle: saline) was 0 of 6.

`CC1(C)NC(=S)NC1=S`: the survivor count (dose: 400.0 mg/kg/injection, schedule: Q01DX009 (ip), vehicle: alcohol) was 3 of 6.

With `CSc1nc2ccccc2s1`, the survivor count under setting [4] was 1 of 6.

Regarding `O=C(O)CC(C(=O)O)c1ccccc1O` (configuration not stated), the survivor count under setting [1] is recorded as 6 of 6.

For the molecule `CC1=C(C)CC([P+](c2ccccc2)(c2ccccc2)c2ccccc2)CC1` (configuration not stated), the survivor count is, setting by setting: (dose: 50.0 mg/kg/injection, schedule: Q01DX001 (ip), vehicle: saline with Tween-80) 2 of 3; under setting [5], 0 of 3; (dose: 200.0 mg/kg/injection, schedule: Q01DX001 (ip), vehicle: saline with Tween-80) 0 of 3.

As to `CN(C)c1ccc(/C=C/c2ccnc3ccccc23)cc1`, the survivor count reads like this: (dose: 80.0 mg/kg/injection, schedule: Q01DX009 (ip), vehicle: saline) 3 of 6; under setting [6], 1 of 4.

As for `O=[As](O)(CC(O)COc1ccc(Cl)cc1Cl)c1cccc(Cl)c1` (configuration not stated), the survivor count is 0 of 6 (dose: 25.0 mg/kg/injection, schedule: Q04DX003 (ip), vehicle: saline with Tween-80); 0 of 6 (dose: 50.0 mg/kg/injection, schedule: Q04DX003 (ip), vehicle: saline with Tween-80); 0 of 6 (2×) (dose: 100.0 mg/kg/injection, schedule: Q04DX003 (ip), vehicle: saline with Tween-80); 0 of 6 (dose: 200.0 mg/kg/injection, schedule: Q04DX003 (ip), vehicle: saline with Tween-80); 0 of 6 (dose: 400.0 mg/kg/injection, schedule: Q04DX003 (ip), vehicle: saline with Tween-80).

Take `O=C(O)c1ccc(SSc2ccc(C(=O)O)cc2)cc1`: where the note is “dose: 100.0 mg/kg/injection, schedule: Q04DX002 (ip), vehicle: carboxymethylcellulose (CMC)”, the T/C is 91, 95, 98, 100 % of control. In addition, the survivor count (dose: 200.0 mg/kg/injection, schedule: Q01DX009 (ip), vehicle: carboxymethylcellulose (CMC)) is on record as 2 of 3; the survivor count (dose: 200.0 mg/kg/injection, schedule: Q04DX002 (ip), vehicle: carboxymethylcellulose (CMC)) was 2 of 3; the survivor count under setting [7] is 0 of 3; the survivor count (dose: 400.0 mg/kg/injection, schedule: Q01DX009 (ip), vehicle: carboxymethylcellulose (CMC)) was 0 of 3; the survivor count (dose: 400.0 mg/kg/injection, schedule: Q04DX002 (ip), vehicle: carboxymethylcellulose (CMC)) was 0 of 3 and 0 of 6.

Take `CC(C)NNC(=O)c1ccccc1N`: under setting [4], the survivor count was 3 of 6.

In the case of `COC(=O)c1cc([N+](=O)[O-])c(Br)s1`, the survivor count reads like this: under setting [2], 2 of 6; under setting [3], 1 of 6.

In the case of `CC1=C(C)CC(C(Cl)(Cl)Cl)C([N+](=O)[O-])C1` (configuration not stated), the survivor count (dose: 200.0 mg/kg/injection, schedule: Q01DX009 (ip), vehicle: saline with Tween-80) is listed as 3 of 6 and the survivor count (dose: 400.0 mg/kg/injection, schedule: Q01DX009 (ip), vehicle: saline with Tween-80) is reported as 0 of 6.

As to `O=C(CN(CCO)CCO)c1ccc([N+](=O)[O-])cc1`, the survivor count is on record as 0 of 6 under setting [8] and 0 of 6 under setting [9].

As to `CC(=O)OCC1OC(NC(=O)N(CCCl)N=O)C(OC(C)=O)C(OC(C)=O)C1OC(C)=O` (configuration not stated), the survivor count runs as follows: (dose: 44.0 mg/kg/injection, schedule: Q01DX001 (ip), vehicle: saline with Tween-80) 10 of 10; (dose: 67.0 mg/kg/injection, schedule: Q01DX001 (ip), vehicle: saline with Tween-80) 10 of 10; under setting [5], 10 of 10.

For the molecule `O=C1C(Cl)=C(N=Nc2c(Cl)c(O)c3ccccc3c2O)C(=O)c2ccccc21`, the survivor count (dose: 100.0 mg/kg/injection, schedule: Q01DX009 (ip), vehicle: acetone) was 2 of 6; the survivor count (dose: 200.0 mg/kg/injection, schedule: Q01DX001 (ip), vehicle: carboxymethylcellulose (CMC)) is listed as 1 of 4; the survivor count under setting [7] is recorded as 0 of 4.

As to `CC1C(C)[N+]1=P(c1ccccc1)(c1ccccc1)c1ccccc1` (configuration not stated), the survivor count is 5 of 6 (dose: 15.0 mg/kg/injection, schedule: Q01DX001 (ip), vehicle: carboxymethylcellulose (CMC)); 2 of 6 (dose: 30.0 mg/kg/injection, schedule: Q01DX001 (ip), vehicle: carboxymethylcellulose (CMC)); 2 of 6 (dose: 60.0 mg/kg/injection, schedule: Q01DX001 (ip), vehicle: carboxymethylcellulose (CMC)); 1 of 6 (dose: 75.0 mg/kg/injection, schedule: Q01DX001 (ip), vehicle: carboxymethylcellulose (CMC)); 0 of 6 (dose: 150.0 mg/kg/injection, schedule: Q01DX001 (ip), vehicle: carboxymethylcellulose (CMC)); 0 of 6 (dose: 300.0 mg/kg/injection, schedule: Q01DX001 (ip), vehicle: carboxymethylcellulose (CMC)).

Turning to `C(=C\c1ccccc1)/C[n+]1cccc2ccccc21`, the survivor count by setting is: under setting [8], 0 of 6; under setting [9], 0 of 6.

Turning to `C=NN=C(NN=C)NN=C`, the survivor count is, setting by setting: (dose: 60.0 mg/kg/injection, schedule: Q01DX Z (oral), vehicle: methylcellulose (MC)) 3 of 5; (dose: 240.0 mg/kg/injection, schedule: Q01DX Z (ip), vehicle: methylcellulose (MC)) 0 of 6; (dose: 240.0 mg/kg/injection, schedule: Q01DX Z (oral), vehicle: methylcellulose (MC)) 3 of 6; (dose: 360.0 mg/kg/injection, schedule: Q01DX Z (ip), vehicle: methylcellulose (MC)) 0 of 6; (dose: 480.0 mg/kg/injection, schedule: Q01DX Z (ip), vehicle: methylcellulose (MC)) 0 of 6; (dose: 760.0 mg/kg/injection, schedule: Q01DX Z (oral), vehicle: methylcellulose (MC)) 0 of 6. The survivor count (dose: 960.0 mg/kg/injection, schedule: Q01DX Z (oral), vehicle: methylcellulose (MC)) is listed as 0 of 6.

`CCN1CCCC(Nc2cc(C)nc(Nc3nc4cc(Cl)c(Cl)cc4[nH]3)n2)C1` (configuration not stated): the survivor count (dose: 50.0 mg/kg/injection, schedule: Q01DX009 (ip), vehicle: saline with Tween-80) is reported as 3 of 6; the survivor count (dose: 100.0 mg/kg/injection, schedule: Q01DX009 (ip), vehicle: saline with Tween-80) is listed as 4 of 6; the survivor count (dose: 200.0 mg/kg/injection, schedule: Q01DX001 (ip), vehicle: saline) is 0 of 6; the survivor count under setting [6] was 0 of 6.

The record behind these values is PubChem BioAssay AID248 (DTP/NCI, 2004).
